The values that follow come from patent US20200369754A1.

Chains of the proteins cited; added tags and fusions are not shown. Lines headed by an entry give the natural chain unless they say otherwise; changes in a name come on top. A line that says so, or that is headed by a name, gives the form on record, which may keep a tag or linker.
PHFs (tau seeds) from human AD brain homogenate (P10636, form named): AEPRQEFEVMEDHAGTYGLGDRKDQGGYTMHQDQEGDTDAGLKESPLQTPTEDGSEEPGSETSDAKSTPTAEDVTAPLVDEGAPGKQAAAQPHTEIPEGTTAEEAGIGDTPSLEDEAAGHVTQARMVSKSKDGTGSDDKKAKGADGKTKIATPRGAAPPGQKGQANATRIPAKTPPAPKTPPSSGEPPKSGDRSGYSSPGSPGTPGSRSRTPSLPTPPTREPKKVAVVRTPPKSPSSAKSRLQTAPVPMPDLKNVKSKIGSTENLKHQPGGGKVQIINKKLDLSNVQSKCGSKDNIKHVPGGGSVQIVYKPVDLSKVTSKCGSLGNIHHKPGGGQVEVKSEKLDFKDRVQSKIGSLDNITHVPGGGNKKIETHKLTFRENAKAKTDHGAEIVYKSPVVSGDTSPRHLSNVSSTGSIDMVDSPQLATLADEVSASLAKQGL

No constants are given. Whether binding was seen depends on the method and setting. Some results given as binding are weak or reduced against the parent protein; the word gives no strength.

The target of the assay is PHFs (tau seeds) from human AD brain homogenate (human) (UniProt P10636). In words: immunodepletion of AD brain homogenate with antibody and protein G beads.

B1: CBTAU-28.1 (I50M[VH];Y52W[VH];S103W[VH];Y31W[VL];N99H[VL]) (antibody, V domains shown)
VH: QVQLQQSGAEVKKPGESLKISCEASGYSFTNYWIGWVRQMPGKGLEWMGMIWPGDSDTRYSPPFQGQVTITADRSITTAYLEWSSLKASDTAMYYCARVGRPWKGGWFDPWGQGTLVTVSS
VL: DIQMTQSPDSLAVSLGERATINCESSQTLLWSSNEKNYLAWYQQKPGQPPKLLISWASTPESGVPDRFSGSGSGTSFTLTISSLQAEDVAVYYCQQYYHSPYTFGQGTRLEIK
With B1, the binding result is reported as “binds”.

B2: CBTAU-28.1 (I50M[VH];Y52W[VH];S103F[VH];Y31W[VL];N99H[VL]) (antibody, V domains shown)
VH: QVQLQQSGAEVKKPGESLKISCEASGYSFTNYWIGWVRQMPGKGLEWMGMIWPGDSDTRYSPPFQGQVTITADRSITTAYLEWSSLKASDTAMYYCARVGRPFKGGWFDPWGQGTLVTVSS
VL: DIQMTQSPDSLAVSLGERATINCESSQTLLWSSNEKNYLAWYQQKPGQPPKLLISWASTPESGVPDRFSGSGSGTSFTLTISSLQAEDVAVYYCQQYYHSPYTFGQGTRLEIK
In the case of B2, the binding entry is “binds”.
